Screening data, single-dose tests

The values are deposited in ChEMBL (CHEMBL3988442, “University of Dundee, Small-Polar-MMV Screening Library” (2021)).

The filed quantity is “Percent Effect” (%). The controls that fix the scale are not given in the record; negative values are as filed. Compounds were drawn at random from those tested, without regard to their results.

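Whole-parasite assay of Trypanosoma brucei over 72 hours; the read-out is not stated. Compounds at 30 µM. Higher reads as stronger inhibition (inferred: compounds with an IC50 in retests scored well above the rest). Values scatter widely below zero; nearly all retest evidence comes from the higher of the two concentrations used. Of about 64,000 compounds tested this way, about 940 (1.5%) reached 50% or more in at least one test.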

compound	effect
CCc1cn[nH]c1C1CCN(c2cc(C)c3cccc(OC)c3n2)CC1	-29.52%
Cc1noc(C(C)N(C)CC(=O)NCCc2ccc(Cl)cc2)n1 (stereo not drawn)	-17.78%
CC1CCCN(c2ncc(-c3ccccc3F)c(-c3nccn3C)n2)C1 (stereo not drawn)	-0.5073%
NC(=O)c1cnc(NC2CCN(c3ccccc3)CC2)c(Cl)c1	12.09%
CCc1cc(N2C[C@H](C3CC3)[C@@H](N)C2)nc(N2CCCC2)n1	72.1%
COc1nc(N2CCC(CC(N)=O)CC2)ncc1Br	-6.792%
CSCCC(=O)N1CCC(c2nnc(CN(C)CCO)n2C)CC1	11.55%
CC(C)(C)c1ccn(C2(C(=O)O)CCN(c3nccc(N)n3)CC2)n1	-22.16%
CN(CCN1CCCCCC1)c1nccc(N2CCC(O)C2)n1 (stereo not drawn)	-41.89%
CC(C)CNC(=O)CN1C=Nc2ccccc2S1(=O)=O	-44.43%
CN(C(=O)C1CCOCC1)[C@@H]1CCC[C@@H](N2CCOCC2)[C@@H]1O	-18.45%
CN1CC2(CCN(C(=O)c3cn4cccnc4n3)CC2)CC1=O	-23.03%
Cc1ccc(-n2ccc3nc(N4CCCC4)ncc3c2=O)cc1C	-44.84%
O=C(C1CC1)N1CCc2c(ncnc2N2CCN3CCCC3C2)C1 (stereo not drawn)	-14.52%
Cc1nnc(N(CCC#N)CCC#N)s1	-7.66%
CNc1nc2c(s1)C(c1ccccc1Cl)CC(=O)N2 (stereo not drawn)	-36.51%
Cc1cc(O)cc2c(=O)oc(CC(C)O)cc12 (stereo not drawn)	-6.372%
CN(Cc1cc(F)ccc1F)CC(C)(CO)CO	-7.821%
CCc1nnc(CN(C)Cc2cccc(C(=O)Nc3cnn(C)c3)c2)o1	-58.9%
COc1ccccc1CNc1c(N2CCN(C(C)=O)CC2)c(=O)c1=O	-4.502%
Cc1nc(C(NC(=O)CN(C)C(C)C)c2ccccc2F)no1 (stereo not drawn)	-73.24%
CC(CNC(=O)N1CCNC(=O)CC1)Cc1cccs1 (stereo not drawn)	-32.45%
Cc1cc(NC(=O)CN2CCCC2Cn2nc(C)nc2C)on1 (stereo not drawn)	21.03%
CN(C)C(=O)c1cccc(CN2CCN(CC(O)C(C)(C)C)CC2)c1 (stereo not drawn)	-8.149%
CSCc1ccc(N(C)CC2CCCN(C(C)C)C2)nc1 (stereo not drawn)	-187%
CCCN(CCC)C(=O)c1sc(C)nc1C	-12.08%
Cc1ccc(N2CCCN(C(=O)C3(C#N)CCCCC3)CC2)nn1	16.08%
Cc1nc(CN2C[C@@H](NS(=O)(=O)N(C)C)[C@H](C(C)C)C2)cs1	2.565%
NS(=O)(=O)CCNC(=O)c1cc(Br)c2c(c1)OCCO2	1.046%
CCc1ocnc1C(=O)N1CCC(C2CCN(c3ncccn3)CC2)C1 (stereo not drawn)	-36.74%
CN(Cc1ccc(F)cc1F)Cc1cc2c(cc1Br)OCCO2	-9.363%
CC(C)(C)n1ncc2c1NC(=O)CC2c1ccc(C#N)cc1 (stereo not drawn)	-7.173%
COc1cccc(COCC(=O)N2CCN(CC(C)(C)O)CC2)c1	-10.1%
Cc1n[nH]c(C)c1CNCC(O)c1ccc(F)c(F)c1 (stereo not drawn)	-14.82%
CC(Nc1cnn(C)c(=O)c1Cl)c1ccc(F)cc1 (stereo not drawn)	-29.94%
CS(=O)(=O)NC1CCc2[nH]c(=O)ccc2C1 (stereo not drawn)	-9.255%
Cc1[nH]c2ccccc2c1-c1ccnc(N[C@@H](C)CO)n1	24.23%
O=C(C1CNCCO1)N1CCC(c2cc(N3CCCC3)ncn2)CC1 (stereo not drawn)	-19.56%
CCS(=O)(=O)Nc1ccc2oc(C)c(C(=O)OC)c2c1	-19.94%
CCC(NCCn1cccn1)C(=O)Nc1cc(C)on1 (stereo not drawn)	-64.57%
CCOc1ccccc1C(CC(=O)Nc1ccc(C)cn1)NC(C)=O (stereo not drawn)	-10.57%
[H][C@]12CC[C@]([H])(CN(Cc3ccccc3C#N)C1)N(CC(=O)N(C)C)C2=O	-6.114%
Cc1cccc(CN2CCN(C(=O)c3cc(C4CC4)[nH]n3)CC2)c1	-6.198%
COC(C)c1noc(CN(C)c2nccnc2C#N)n1 (stereo not drawn)	-18.02%
COCC1c2nnn(C)c2CCN1C(=O)CCc1cccc(OC)c1 (stereo not drawn)	-89.89%
Cc1nc(C)n(CC2CCCN(Cc3ccc4c(c3)OCCO4)C2)n1 (stereo not drawn)	-4.29%
[O-][S+](CCN1CCc2[nH]nc(C(F)(F)F)c2C1)c1ccccc1 (stereo not drawn)	-53.26%
COc1ccccc1C(C)Nc1ncc(C(N)=O)cc1Cl (stereo not drawn)	-54.14%
CC(C)c1cc(C(=O)N(Cc2ccncc2)CC2CCCO2)no1 (stereo not drawn)	-71.52%
O=C(CSCc1ccccn1)NCC1CC1	-43.7%
Nc1nc(CCCNC(=O)c2ccc(C3CCCNC3)cc2)cs1 (stereo not drawn)	4.031%
COCc1nnc(-c2cccc(C(=O)N(C(C)C)C3CCC3)c2)o1	-83.08%
CCNC(=O)C1CCN(Cc2csc(-c3ccc(C)o3)n2)CC1	16.06%
Cc1ccoc1C(=O)N1CCCc2c(c(=O)n(C)n2C)C1	-23%
CC(C)NC(=O)CN(C)C(=O)c1c(Cl)c2ccccc2n1C	-18.01%
CCN1CCC2(CCN(Cc3ccc(OC)cc3)CC2)C1=O.O=C(O)C(F)(F)F	-11.83%
[H][C@]12CCC[C@@]1(COCC1CC1)CN(S(=O)(=O)N(C)C)C2	-56.47%
O[C@H]1[C@H](n2cc(CN3CCCC3)nn2)c2ccccc2C12CCNCC2	-18.67%
Cc1ccc(S(=O)(=O)NCC2CNCCOC2)cc1Cl (stereo not drawn)	-28.76%
CCN(CC1CCOC1)C(=O)Nc1ccc(N2CCOCC2)nc1 (stereo not drawn)	-6.598%
COc1ccc(CCN2CCN(C(=O)c3scnc3C)CC2)cc1	19.48%
O=C(O)C(F)(F)F.O=C(O)C(F)(F)F.O=C(O)c1cc2c(nc1NCC1CC1)CCN(C1CCOC1)CC2 (stereo not drawn)	-43.86%
COc1cc(OC)c2nc(NCCN3CCNC3=O)cc(C)c2c1	22.56%
COc1ccc(C(=O)N(C2CC2)C2CC(=O)NC2=O)cc1 (stereo not drawn)	-32.62%
CCNC(=O)[C@@H]1C[C@@H](N)CN1Cc1ccc2cccc(Cl)c2n1	-34.28%
CN(C)CCOCC1CN(Cc2ccncc2)Cc2nnn(C)c21.O=C(O)C(F)(F)F.O=C(O)C(F)(F)F.O=C(O)C(F)(F)F (stereo not drawn)	-21.67%
Cc1ccc(NC2CCN(C(=O)c3cccc4ncccc34)CC2)nn1	-12.05%
CS(=O)(=O)c1nccn1CCOc1ccc(F)cc1Cl	-5.992%
CC1CN(CCOc2ccccc2C#N)CCN1Cc1nccn1C (stereo not drawn)	13.64%
CCC(C)(C)c1cc(-c2c(C)nn(CCO)c2C)c(C#N)c(N)n1	1.225%
N#CC1CCN(C(=O)CN2CC(c3ccccc3)CC2=O)CC1 (stereo not drawn)	-40.99%
CCO[C@H]1CO[C@@]2(CCCN(Cc3scnc3C)C2)C1.O=C(O)C(F)(F)F	-66.13%
CC(C)Oc1ccc(CC2=N[C@](C)(CO)CO2)cc1	-78.15%
COc1cc(C)nc(N2CCN(C(=O)c3ccoc3C)CC2)n1	-16.6%
CCCn1c(C)c(CC(=O)NC(C)(C)CO)c2c1CC(C)(C)CC2=O	0.6597%
COCCC(=O)N1CCC2(CCCN2Cc2cccc(Cl)c2)C1 (stereo not drawn)	-27.75%
Cc1nnc2n1CC(CNCc1nc(-c3ccsc3)no1)CC2 (stereo not drawn)	-152.4%